Reference: paper PMC9684564
No constants are given. Whether binding was seen depends on the method and setting. In cells and extracts the contact can be indirect. Some binding calls cover weakened binding; strength is not graded here.

Amino acid sequences for entries named in this document (tags omitted).
UniProt Q14974: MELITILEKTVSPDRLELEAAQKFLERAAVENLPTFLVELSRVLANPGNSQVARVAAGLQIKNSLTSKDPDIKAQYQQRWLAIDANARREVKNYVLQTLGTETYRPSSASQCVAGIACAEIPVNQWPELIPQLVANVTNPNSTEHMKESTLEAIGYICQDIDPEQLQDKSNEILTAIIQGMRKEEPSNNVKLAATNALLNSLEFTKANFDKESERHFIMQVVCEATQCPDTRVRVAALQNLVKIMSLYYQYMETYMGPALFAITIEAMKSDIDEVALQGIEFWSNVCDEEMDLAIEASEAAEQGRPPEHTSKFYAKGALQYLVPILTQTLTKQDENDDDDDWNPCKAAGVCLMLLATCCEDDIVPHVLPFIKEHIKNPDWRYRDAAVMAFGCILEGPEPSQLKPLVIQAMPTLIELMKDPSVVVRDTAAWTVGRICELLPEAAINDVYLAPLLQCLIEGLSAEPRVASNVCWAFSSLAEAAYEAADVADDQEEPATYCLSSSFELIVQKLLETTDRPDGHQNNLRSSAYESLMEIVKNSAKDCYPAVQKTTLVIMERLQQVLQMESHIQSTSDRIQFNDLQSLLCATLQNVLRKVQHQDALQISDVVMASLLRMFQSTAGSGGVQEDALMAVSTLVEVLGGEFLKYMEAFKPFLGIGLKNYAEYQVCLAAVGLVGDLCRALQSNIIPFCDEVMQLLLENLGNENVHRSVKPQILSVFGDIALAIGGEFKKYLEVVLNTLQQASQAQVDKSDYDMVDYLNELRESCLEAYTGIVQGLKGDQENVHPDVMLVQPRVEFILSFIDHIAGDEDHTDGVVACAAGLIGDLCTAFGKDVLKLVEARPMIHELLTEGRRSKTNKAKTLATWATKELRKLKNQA
UniProt O14980: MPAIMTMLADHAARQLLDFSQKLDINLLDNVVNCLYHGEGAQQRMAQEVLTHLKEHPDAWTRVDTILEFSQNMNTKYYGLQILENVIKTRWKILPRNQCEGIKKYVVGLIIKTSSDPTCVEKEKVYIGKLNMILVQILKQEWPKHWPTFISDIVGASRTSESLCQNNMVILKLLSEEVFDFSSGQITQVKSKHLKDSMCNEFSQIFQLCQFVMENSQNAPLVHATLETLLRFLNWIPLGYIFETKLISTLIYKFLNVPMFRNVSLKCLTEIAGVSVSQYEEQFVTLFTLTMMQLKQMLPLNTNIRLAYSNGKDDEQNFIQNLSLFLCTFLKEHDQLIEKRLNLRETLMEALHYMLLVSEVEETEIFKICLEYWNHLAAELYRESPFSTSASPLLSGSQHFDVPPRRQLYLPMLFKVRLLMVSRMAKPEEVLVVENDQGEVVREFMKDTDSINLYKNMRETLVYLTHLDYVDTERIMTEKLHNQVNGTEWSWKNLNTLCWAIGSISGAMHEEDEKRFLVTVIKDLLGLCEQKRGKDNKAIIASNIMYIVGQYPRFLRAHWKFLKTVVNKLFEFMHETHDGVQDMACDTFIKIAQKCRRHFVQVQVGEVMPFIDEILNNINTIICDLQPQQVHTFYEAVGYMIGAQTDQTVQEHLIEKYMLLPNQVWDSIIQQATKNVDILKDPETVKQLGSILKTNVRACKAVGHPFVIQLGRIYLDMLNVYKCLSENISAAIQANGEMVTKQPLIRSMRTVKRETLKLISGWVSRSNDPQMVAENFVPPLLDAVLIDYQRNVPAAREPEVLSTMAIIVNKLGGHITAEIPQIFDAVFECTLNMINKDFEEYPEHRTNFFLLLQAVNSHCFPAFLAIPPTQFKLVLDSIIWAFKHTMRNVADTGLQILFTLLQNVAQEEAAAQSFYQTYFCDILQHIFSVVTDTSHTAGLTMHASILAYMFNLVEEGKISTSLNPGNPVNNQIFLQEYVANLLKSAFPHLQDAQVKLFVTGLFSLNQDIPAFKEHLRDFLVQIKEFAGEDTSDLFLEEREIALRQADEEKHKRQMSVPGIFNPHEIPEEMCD
UniProt Q96AE4: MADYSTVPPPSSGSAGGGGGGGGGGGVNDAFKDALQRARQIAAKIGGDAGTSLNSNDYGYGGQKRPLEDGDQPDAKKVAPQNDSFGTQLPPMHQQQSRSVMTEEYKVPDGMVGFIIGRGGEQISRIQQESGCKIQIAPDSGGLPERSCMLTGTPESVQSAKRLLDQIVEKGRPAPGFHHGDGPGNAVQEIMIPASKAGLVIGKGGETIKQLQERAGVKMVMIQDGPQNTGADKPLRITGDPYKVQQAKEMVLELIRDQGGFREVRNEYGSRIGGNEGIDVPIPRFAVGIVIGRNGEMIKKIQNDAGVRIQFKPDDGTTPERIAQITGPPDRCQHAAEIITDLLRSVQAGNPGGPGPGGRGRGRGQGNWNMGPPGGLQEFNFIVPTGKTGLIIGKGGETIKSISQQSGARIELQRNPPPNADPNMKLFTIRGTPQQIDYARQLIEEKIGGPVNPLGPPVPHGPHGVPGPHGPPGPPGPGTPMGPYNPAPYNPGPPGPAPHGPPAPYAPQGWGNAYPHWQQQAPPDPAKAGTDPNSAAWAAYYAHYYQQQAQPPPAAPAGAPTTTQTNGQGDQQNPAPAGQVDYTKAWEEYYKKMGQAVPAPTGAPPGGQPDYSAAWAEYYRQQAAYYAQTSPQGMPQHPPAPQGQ
UniProt P04406: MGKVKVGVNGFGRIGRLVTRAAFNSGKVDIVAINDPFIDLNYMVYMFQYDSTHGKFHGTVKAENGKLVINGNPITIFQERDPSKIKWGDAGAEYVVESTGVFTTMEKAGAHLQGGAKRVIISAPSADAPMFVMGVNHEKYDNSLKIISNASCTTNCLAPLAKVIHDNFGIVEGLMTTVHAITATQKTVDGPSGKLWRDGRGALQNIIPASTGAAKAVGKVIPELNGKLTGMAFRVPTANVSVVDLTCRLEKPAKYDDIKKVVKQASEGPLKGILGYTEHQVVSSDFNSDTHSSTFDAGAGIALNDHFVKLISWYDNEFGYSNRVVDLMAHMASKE

Assays:
[1] = target: Karyopherin beta 1 (human (endogenous in hTERT-RPE1, HeLa, WHCO5, KYSE30)) (UniProt Q14974); test: co-IP; endogenous Kpnβ1 precipitated with anti-Karyopherin β1 (H-7) agarose-conjugated antibody from lysates of hTERT-RPE-1, HeLa, WHCO5 and KYSE30 cells; Western blot of the whole immunoprecipitate; IgG isotype control with protein A agarose beads
[2] = target: Karyopherin beta 1 (human (endogenous in hTERT-RPE1, HeLa, WHCO5, KYSE30)) (UniProt Q14974); test: co-IP; as a2, lysate of KYSE30 cells only (CCAR1 blot)
[3] = target: Karyopherin beta 1 (human (endogenous in hTERT-RPE1, HeLa, WHCO5, KYSE30)) (UniProt Q14974); test: condition: only in lysates of hTERT-RPE-1 and WHCO5 cells; co-IP; as a2, lysates of hTERT-RPE-1 and WHCO5 cells only (CCAR1 blot)
[4] = target: Karyopherin beta 1 (human (endogenous in hTERT-RPE1, HeLa, WHCO5, KYSE30)) (UniProt Q14974); test: co-IP; endogenous Kpnβ1 precipitated with anti-Karyopherin β1 (H-7) agarose-conjugated antibody from lysates of hTERT-RPE-1, HeLa, WHCO5 and KYSE30 cells; Western blot of the whole immunoprecipitate; IgG isotype control with protein A agarose beads; remark: listed apart in the source

| Molecule | binding [1] | binding [2] | binding [3] | binding [4] |
| --- | --- | --- | --- | --- |
| CRM1 (from UniProt O14980 1-1071) | binds |  |  |  |
| Far upstream element-binding protein 1 (from UniProt Q96AE4 1-644) | binds |  |  |  |
| GAPDH (from UniProt P04406 1-335) | no binding |  |  |  |
| Cell division cycle and apoptosis regulator protein 1 (protein, UniProt Q8IX12 1-1150) MAQFGGQKNPPWATQFTATAVSQPAALGVQQPSLLGASPTIYTQQTALAAAGLTTQTPANYQLTQTAALQQQAAAAAAALQQQYSQPQQALYSVQQQLQQPQQTLLTQPAVALPTSLSLSTPQPTAQITVSYPTPRSSQQQTQPQKQRVFTGVVTKLHDTFGFVDEDVFFQLSAVKGKTPQVGDRVLVEATYNPNMPFKWNAQRIQTLPNQNQSQTQPLLKTPPAVLQPIAPQTTFGVQTQPQPQSLLQAQISAASITPLLQTQPQPLLQQPQQKAGLLQPPVRIVSQPQPARRLDPPSRFSGRNDRGDQVPNRKDDRSRERERERRRSRERSPQRKRSRERSPRRERERSPRRVRRVVPRYTVQFSKFSLDCPSCDMMELRRRYQNLYIPSDFFDAQFTWVDAFPLSRPFQLGNYCNFYVMHREVESLEKNMAILDPPDADHLYSAKVMLMASPSMEDLYHKSCALAEDPQELRDGFQHPARLVKFLVGMKGKDEAMAIGGHWSPSLDGPDPEKDPSVLIKTAIRCCKALTGIDLSVCTQWYRFAEIRYHRPEETHKGRTVPAHVETVVLFFPDVWHCLPTRSEWETLSRGYKQQLVEKLQGERKEADGEQDEEEKDDGEAKEISTPTHWSKLDPKTMKVNDLRKELESRALSSKGLKSQLIARLTKQLKVEEQKEEQKELEKSEKEEDEDDDRKSEDDKEEEERKRQEEIERQRRERRYILPDEPAIIVHPNWAAKSGKFDCSIMSLSVLLDYRLEDNKEHSFEVSLFAELFNEMLQRDFGVRIYKSLLSLPEKEDKKEKDKKSKKDERKDKKEERDDETDEPKPKRRKSGDDKDKKEDRDERKKEDKRKDDSKDDDETEEDNNQDEYDPMEAEEAEDEEDDRDEEEMTKRDDKRDINRYCKERPSKDKEKEKTQMITINRDLLMAFVYFDQSHCGYLLEKDLEEILYTLGLHLSRAQVKKLLNKVVLRESCFYRKLTDTSKDEENHEESESLQEDMLGNRLLLPTPTVKQESKDVEENVGLIVYNGAMVDVGSLLQKLEKSEKVRAEVEQKLQLLEEKTDEDEKTILNLENSNKSLSGELREVKKDLSQLQENLKISENMNLQFENQMNKTIRNLSTVMDEIHTVLKKDNVKNEDKDQKSKENGASV |  | binds weakly | no binding | binds |
